Among the data in PubChem BioAssay AID1487 (National Center for Advancing Translational Sciences (NCATS), 2009) are AC50 values, retold here.

This experiment can be described thus: qHTS Assay for Modulators of Lamin A Splicing. The note with it: HeLa LMNA splicing GFP/RFP minigene ratio, 48 h. A digest of the protocol: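 S3 HeLa stable clones carrying a lamin A-EGFP splicing minigene plus DsRed2 were seeded at 600 cells/well in Opti-MEM with 2% FBS, pin-dosed and incubated 48 h at 37°C. Acumen cytometry (488 nm) gave the GFP/RFP total-intensity ratio.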

Setting [1] is: measured here: RFP viability control channel.
[2] abbreviates: measured here: GFP splicing reporter channel.

This is one part of the list. Further columns of the screen follow, without active or inactive calls. Compounds called inactive in the main read-out are mostly missing here. Potencies come from curve fits of mixed quality, noted in brackets.

Regarding `COCCNS(=O)(=O)c1ccc(SC)cc1`, the half-maximal activity concentration (AC50) under setting [1] is 7.94 µM [rising, partial curve, poor fit]. Turning to `S=C(NCCc1ccccn1)Nc1cccc(Cl)c1`, the AC50 under setting [1] is 35.5 µM [rising, single point]. Turning to `CCOc1ccccc1C1CC(=O)Nc2cc3c(cc21)OCO3` (centres undefined), the concentration at half-maximal activity (AC50) is, setting by setting: under setting [2], 0.794 µM [rising, full curve]; under setting [1], 6.31 µM [rising, full curve]. With `NC(=O)CN1C(=O)C(O)(CC(=O)/C=C\C=C\c2ccccc2)c2ccccc21` (centres undefined), under setting [1], the concentration at half-maximal activity (AC50) was 22.4 µM [rising, single point]. Regarding `COc1ccc(Cn2c(C3CC3)nc3ccc(NC(=O)c4ccco4)cc3c2=O)cc1`, the AC50 under setting [1] is 17.8 µM [rising, single point].

For the molecule `Cc1ccc(C2(C(F)(F)F)N=C3Sc4cc(C)ccc4N3C(=O)N2)cc1` (centres undefined), the concentration at half-maximal activity (AC50) under setting [1] is 35.5 µM [falling, single point]. On to `CC1N(C)c2cc(NC(=O)c3ccco3)ccc2C1(C)C` (centres undefined), for which the AC50 under setting [2] was 35.5 µM [rising, single point] and the AC50 under setting [1] is 35.5 µM [rising, single point]. With `CNC(=S)Nc1ccc(C23CC4CC(CC(C4)C2)C3)cc1`, the AC50 under setting [1] is 14.1 µM [rising, single point]. In the case of `CCCCC(=O)NC(=S)Nc1nnn(CCC)n1`, the AC50 under setting [2] was 4.47 µM [rising, full curve, poor fit]. As for `O=C1C=C(c2cccs2)C[C@H](c2ccccc2)[C@H]1n1nnc([N+](=O)[O-])n1`, the half-maximal activity concentration (AC50) under setting [1] was 35.5 µM [falling, single point]. As to `COc1cc(Nc2ccc(C(=O)O)cc2[N+](=O)[O-])cc(OC)c1`, the AC50 is, setting by setting: under setting [2], 14.1 µM [rising, single point]; under setting [1], 17.8 µM [rising, single point]. Take `O=C(COc1ccc(F)cc1)NC1CC1`: the AC50 under setting [1] is 6.31 µM [falling, single point].

Take `CC(C)CCN1CCN(Cc2cn[nH]c2C2CCCCC2)CC1CCO` (centres undefined): the half-maximal activity concentration (AC50) under setting [1] is 2.82 µM [falling, full curve, poor fit]. `Cc1noc(C)c1-c1ccc2ncnc(NCc3cccs3)c2c1`: the AC50 runs as follows: under setting [2], 1.58 µM [falling, full curve]; under setting [1], 12.6 µM [falling, partial curve]. On to `Cc1ccc(NC(C)C(=O)N/N=C/c2ccc([N+](=O)[O-])s2)cc1` (centres undefined), for which the AC50 under setting [1] is 35.5 µM [rising, single point]. With `Cc1ccccc1NCC(=O)N/N=C/c1ccc([N+](=O)[O-])cc1`, under setting [2], the AC50 is 0.0891 µM [rising, full curve, poor fit]. As to `CCOC(=O)c1c(NC(=O)CSc2ncn[nH]2)sc(C)c1C`, the AC50 under setting [1] is 7.94 µM [rising, partial curve, poor fit]. With `CCN(CC)CCN(C(=O)c1ccco1)c1nc2ccc(F)cc2s1`, the AC50 under setting [1] is 0.0158 µM [falling, full curve, poor fit]. On to `CCOc1ccc(-c2cc(C(=O)O)c3ccccc3n2)cc1`, for which, under setting [1], the AC50 was 31.6 µM [rising, single point].

As to `O=c1c2c(ncn2C2CCCC2)n(Cc2ccccc2)c(=O)n1CCOc1ccccc1`, the half-maximal activity concentration (AC50) was 35.5 µM [rising, single point] under setting [2] and 35.5 µM [rising, single point] under setting [1]. Consider `C[C@@]12CCC(=O)C[C@@H]1CC(=O)[C@H]1[C@H]3CCC[C@]3(C)C(=O)C[C@@H]12` (tested in a mixture with another compound), for which the AC50 under setting [2] is 1.12 µM [falling, single point]. As to `O=C(C1=C(c2ccccc2)C(=O)c2ccccc2C1=O)c1ccccc1`, the AC50 under setting [2] is 0.794 µM [falling, full curve] and the concentration at half-maximal activity (AC50) under setting [1] is 8.91 µM [falling, partial curve]. For `O=C(Nc1ccccc1-c1nnn(CC(=O)N2CCc3ccccc3C2)n1)C1CCC1`, the concentration at half-maximal activity (AC50) under setting [2] is 12.6 µM [rising, single point] and the concentration at half-maximal activity (AC50) under setting [1] is 35.5 µM [rising, single point].

In the case of `Cc1cccc(OCC(=O)Nc2ccccc2-c2ccccc2)c1`, the AC50 runs as follows: under setting [2], 15.8 µM [rising, single point]; under setting [1], 22.4 µM [rising, single point]. For `Cc1cc(N2CCN(C/C=C/c3ccccc3)CC2)n2ncnc2n1`, the AC50 is 1.26 µM [rising, full curve, poor fit] under setting [2] and 2.82 µM [rising, full curve] under setting [1]. As to `CN1CCN(C(=S)c2cn(CCOc3ccccc3)c3ccccc23)CC1`, the half-maximal activity concentration (AC50) under setting [1] is 0.316 µM [falling, partial curve, poor fit]. `COc1cc2c(cc1OC)C(C)N(C(=O)Cn1ncc3c1-c1cc(C)ccc1OC3)CC2` (centres undefined): under setting [1], the concentration at half-maximal activity (AC50) is 28.2 µM [rising, single point]. Consider `COc1ccc(C2NC(=S)NC(O)(C(F)(F)F)C2C(=O)c2cccs2)cc1` (centres undefined), for which the AC50 is 0.2 µM [falling, single point] under setting [2] and 35.5 µM [rising, single point] under setting [1].

As for `COc1ccccc1C/C(N)=N/OC(=O)/C=C/c1ccccc1`, under setting [2], the AC50 is 0.0178 µM [rising, full curve, poor fit]. For `CN(C)S(=O)(=O)c1cccc(C(=O)N(Cc2ccc(F)cc2)Cc2ccco2)c1`, the AC50 under setting [2] was 22.4 µM [rising, single point] and the half-maximal activity concentration (AC50) under setting [1] is 35.5 µM [rising, single point].

Take `Cc1ccc(C)c(N2CCN(S(=O)(=O)c3cc(C(=O)Nc4ccccc4C(F)(F)F)ccc3F)CC2)c1`: the AC50 under setting [1] was 5.01 µM [falling, full curve, poor fit]. Take `COc1ccc(-n2c(Cc3cccn3C)nnc2SCC(=O)Nc2cc(C)cc(C)c2)cc1`: the half-maximal activity concentration (AC50) under setting [1] was 10 µM [rising, single point]. For `CCOC(=O)c1cc2sccc2n1CC(=O)c1ccc2c(c1)OCCO2`, the AC50 under setting [2] is 12.6 µM [rising, single point]. Turning to `O=C(Nc1nnc(-c2ccccc2)s1)c1cc(S(=O)(=O)N2CCOCC2)c(Cl)cc1Cl`, the AC50 under setting [1] is 3.55 µM [rising, single point].

In the case of `CCOC(=O)CN1C(=O)N[C@@H](c2ccco2)C(C(=O)OC)=C1C`, the AC50 runs as follows: under setting [2], 2.82 µM [rising, partial curve, poor fit]; under setting [1], 2.51 µM [rising, single point]. For the molecule `CN(C)c1ccc(CNC(=O)Cn2c(-c3cccs3)cc3cc(Cl)ccc32)cc1`, the AC50 under setting [1] was 0.0794 µM [rising, partial curve]. As to `N#Cc1ccccc1Cn1c(=O)n(Cc2ccc(C(=O)NCc3ccco3)cc2)c(=O)c2ccccc21`, the concentration at half-maximal activity (AC50) under setting [2] was 14.1 µM [falling, single point].

Turning to `Cn1nnnc1SC1CC(=O)N(c2ccccc2)C1=O` (centres undefined), the AC50 by setting is: under setting [2], 35.5 µM [falling, single point]; under setting [1], 35.5 µM [falling, single point].

`CCN(CC)C(=O)c1sc(NC(=O)C(C)C)c(C#N)c1C`: the AC50 under setting [2] was 3.98 µM [rising, partial curve, poor fit]. For `c1ccc(-c2ccc3c(c2)c2c4n3CCN=C4CCC2)cc1`, the AC50 under setting [1] is 35.5 µM [falling, single point].

As for `Cc1[nH]n(-c2ccccc2)c(=S)c1C=NCCCN=Cc1c(C)[nH]n(-c2ccccc2)c1=S`, the AC50 under setting [1] was 35.5 µM [rising, single point]. For the molecule `O=C1NN(c2ccccc2)C(=O)/C1=C/c1ccc(-c2ccc(Cl)c(C(=O)O)c2)o1`, the AC50 under setting [2] is 15.8 µM [rising, single point].

As for `O=C(N/N=C/c1ccccn1)c1ccc(NC(=O)c2cccc([N+](=O)[O-])c2)cc1`, the concentration at half-maximal activity (AC50) under setting [2] is 11.2 µM [falling, partial curve] and the AC50 under setting [1] is 11.2 µM [falling, partial curve]. As to `Cc1ccccc1Oc1nc2c(C)cccn2c(=O)c1/C=C(\C#N)C(=O)Nc1c(C)n(C)n(-c2ccccc2)c1=O`, the concentration at half-maximal activity (AC50) under setting [1] was 20 µM [rising, partial curve, poor fit]. On to `CC(=O)c1c(C)[nH]c(C(=O)CN2C(=O)NC(C)(c3ccc(C)cc3)C2=O)c1C` (centres undefined), for which the half-maximal activity concentration (AC50) under setting [2] is 1.58 µM [falling, full curve, poor fit] and the half-maximal activity concentration (AC50) under setting [1] is 1.78 µM [falling, full curve, poor fit].

Turning to `CCCCn1c(SCc2ccccc2C)nc2ccsc2c1=O`, the concentration at half-maximal activity (AC50) under setting [1] was 35.5 µM [rising, single point]. For `c1ccc(CN2CCC(Nc3nc(-c4cccs4)nc4ccccc34)CC2)cc1`, the concentration at half-maximal activity (AC50) by setting is: under setting [2], 11.2 µM [falling, partial curve]; under setting [1], 35.5 µM [falling, single point].

`O=C(COC(=O)c1ccccc1)NCc1cccs1`: the concentration at half-maximal activity (AC50) under setting [1] is 2 µM [rising, full curve, poor fit]. Turning to `Cc1ccc(NC(=S)NC(NC(=O)N(C)C)C(Cl)(Cl)Cl)cc1` (centres undefined), under setting [1], the concentration at half-maximal activity (AC50) was 0.141 µM [rising, full curve, poor fit].

`CC(C)(C)NC(=O)NC(=O)CN1CCN(c2ncc(C(F)(F)F)cc2Cl)CC1`: the AC50 under setting [1] was 20 µM [rising, single point].

For the molecule `Cc1cccc(OCCSc2cc(C)nc(N)n2)c1`, the AC50 reads like this: under setting [2], 35.5 µM [rising, single point]; under setting [1], 35.5 µM [rising, single point]. For the molecule `COc1ccc(CNC(=O)CC(C)CC2=NS(=O)(=O)c3ccccc3N2)cc1` (centres undefined), under setting [1], the half-maximal activity concentration (AC50) was 4.47 µM [falling, full curve, poor fit].

Regarding `C=C(C)CNC(=S)Nc1cccc2cnccc12`, under setting [1], the AC50 was 12.6 µM [rising, partial curve]. The same measure, in the same setting: the figure for `COc1ccc(NC(=O)CCC(=O)NCCO)cc1` is 8.91 µM [falling, partial curve].

Turning to `CC(C)(C)OC(=O)N/N=C/c1cccc([N+](=O)[O-])c1`, under setting [2], the half-maximal activity concentration (AC50) was 0.0891 µM [falling, full curve, poor fit]. `CCN1CCN(C(=S)Nc2ccc(Cl)cc2)CC1`: the AC50 is, setting by setting: under setting [2], 14.1 µM [rising, partial curve, poor fit]; under setting [1], 12.6 µM [rising, partial curve].
